Literature values in US20100216817A1, “Antitumoral Tetrahydro-Pyrimidines” (Pharma Mar SA, priority 2005, published 2010).
Some entries share one result that the patent states for a list of compounds.

System: Pseudomonas aeruginosa
Settings: Tetrahedron 1994, 50, 3415-3426; cited from earlier work

Phloeodictine B
MIC: > 30 µg/mL
